No constants are given. Whether binding was seen depends on the method and setting. In cells and extracts the contact can be indirect. Some entries that bind do so weakly or less than the wild type. Tags and fused reporters may be left off the sequences shown.
Target: T1, peroxiredoxin PRXIIB fused to eYFP (Arabidopsis thaliana) (UniProt Q9XEX2)
T1 sequence: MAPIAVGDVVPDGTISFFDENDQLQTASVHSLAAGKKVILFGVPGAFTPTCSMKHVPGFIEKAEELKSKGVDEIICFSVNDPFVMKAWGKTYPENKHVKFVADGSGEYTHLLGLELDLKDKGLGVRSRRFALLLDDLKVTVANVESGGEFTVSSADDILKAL
Assay: FRET or BRET; FRET between mTurquoise2 (donor) and eYFP (acceptor) by sensitized emission in transfected A. thaliana leaf protoplasts; cells untreated, reduced with 1 mM DTT for 30 min, or first reduced and then oxidized with 5 mM H2O2 for 30 min

B1: cytosolic malate dehydrogenase 1 (MDH1) fused to a fluorescent protein (enzyme, UniProt P93819 1-332)
chain: MAKEPVRVLVTGAAGQIGYALVPMIARGIMLGADQPVILHMLDIPPAAEALNGVKMELIDAAFPLLKGVVATTDAVEGCTGVNVAVMVGGFPRKEGMERKDVMSKNVSIYKSQAAALEKHAAPNCKVLVVANPANTNALILKEFAPSIPEKNISCLTRLDHNRALGQISERLSVPVSDVKNVIIWGNHSSSQYPDVNHAKVQTSSGEKPVRELVKDDAWLDGEFISTVQQRGAAIIKARKLSSALSAASSACDHIRDWVLGTPEGTFVSMGVYSDGSYSVPSGLIYSFPVTCRNGDWSIVQGLPIDEVSRKKMDLTAEELKEEKDLAYSCLS
binding: binds

From article PMC11022108
